From publication PMC10238393 (2023) come the findings set out here.

For this test, the target named is LPHN2 Lec/Olf domain (human). The test can be described thus: ELISA; solid-phase binding assay: LPHN2 extracellular domain variants (100 nM) coated on MaxiSorp 96-well plates, 1 h room temperature, blocked with 1% BSA; 0.001-10 μM LRG1 forms added; detected with anti-LRG1 antibody and peroxidase-conjugated secondary antibody; both purified.

These are yes or no findings as the source states them, for the method shown. Binding calls can cover weak binding; strength is not graded here.

B1: LRG1 N325D mutant (protein, UniProt P02750 36-347)
chain: VTLSPKDCQVFRSDHGSSISCQPPAEIPGYLPADTVHLAVEFFNLTHLPANLLQGASKLQELHLSSNGLESLSPEFLRPVPQLRVLDLTRNALTGLPPGLFQASATLDTLVLKENQLEVLEVSWLHGLKALGHLDLSGNRLRKLPPGLLANFTLLRTLDLGENQLETLPPDLLRGPLQLERLHLEGNKLQVLGKDLLLPQPDLRYLFLNGNKLARVAAGAFQGLRQLDMLDLSNNSLASVPEGLWASLGQPNWDMRDGFDISGNPWICDQNLSDLYRWLQAQKDKMFSQDDTRCAGPEAVKGQTLLAVAKSQ
With B1, the binding entry is recorded as “binds”.
